Test results as given in article PMC8894357 (2022).
Results are given in words; binding and its absence hold for the method and conditions named. Some results given as binding are weak or reduced against the parent protein; the word gives no strength. For some assays here: Where a sequence is shown, tags or fusion partners need not be part of it.

Tests used:
[1] = biological target: T1, αE-catenin, monomeric fraction (mouse, full length, His(6x) tagged) (mouse), P26231; test: SEC; HiLoad Superdex 200, 25 mM Tris pH 7.5, 150 mM NaCl, 1 mM DTT; monomeric and homodimeric fractions pooled separately; both purified; conditions: remark: other sources report otherwise
T1 chain: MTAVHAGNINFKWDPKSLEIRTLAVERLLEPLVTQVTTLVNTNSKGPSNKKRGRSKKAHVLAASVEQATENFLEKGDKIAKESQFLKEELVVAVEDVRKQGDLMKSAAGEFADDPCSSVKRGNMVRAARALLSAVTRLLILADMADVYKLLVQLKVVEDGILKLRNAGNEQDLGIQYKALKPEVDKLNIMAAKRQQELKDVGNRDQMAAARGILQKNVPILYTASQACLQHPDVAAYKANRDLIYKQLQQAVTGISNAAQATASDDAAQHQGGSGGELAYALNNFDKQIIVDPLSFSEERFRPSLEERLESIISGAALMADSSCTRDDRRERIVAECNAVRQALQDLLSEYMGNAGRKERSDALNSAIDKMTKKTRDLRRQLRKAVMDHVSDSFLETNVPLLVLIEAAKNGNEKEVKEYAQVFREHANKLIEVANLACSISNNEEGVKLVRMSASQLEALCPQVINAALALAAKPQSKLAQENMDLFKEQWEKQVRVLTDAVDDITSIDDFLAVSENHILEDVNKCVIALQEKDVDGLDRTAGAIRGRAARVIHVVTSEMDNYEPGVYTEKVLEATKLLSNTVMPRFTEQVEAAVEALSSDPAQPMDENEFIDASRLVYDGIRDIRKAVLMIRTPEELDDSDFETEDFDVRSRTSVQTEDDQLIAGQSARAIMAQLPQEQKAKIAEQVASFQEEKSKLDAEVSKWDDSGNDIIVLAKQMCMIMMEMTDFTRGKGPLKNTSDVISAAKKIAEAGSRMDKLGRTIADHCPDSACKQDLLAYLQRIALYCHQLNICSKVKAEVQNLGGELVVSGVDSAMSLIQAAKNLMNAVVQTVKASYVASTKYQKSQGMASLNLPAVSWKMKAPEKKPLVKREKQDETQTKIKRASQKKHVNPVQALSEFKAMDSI

[2] = biological target: T2, Human β-catenin, GST tagged (human, UniProt P35222 1-781); test: ultrafast force-clamp spectroscopy (optical tweezers); single α-β-catenin heterodimer: β-catenin 80 μg/ml on the nitrocellulose-coated silica bead, then αE-catenin 4 μg/ml for 5 min; F-actin dumbbell under constant force, one dumbbell; 20 mM MOPS pH 7.2, 50 mM KCl, 1 mM MgCl2, 0.1 mM EGTA, 20 mM DTT; both purified
T2 chain: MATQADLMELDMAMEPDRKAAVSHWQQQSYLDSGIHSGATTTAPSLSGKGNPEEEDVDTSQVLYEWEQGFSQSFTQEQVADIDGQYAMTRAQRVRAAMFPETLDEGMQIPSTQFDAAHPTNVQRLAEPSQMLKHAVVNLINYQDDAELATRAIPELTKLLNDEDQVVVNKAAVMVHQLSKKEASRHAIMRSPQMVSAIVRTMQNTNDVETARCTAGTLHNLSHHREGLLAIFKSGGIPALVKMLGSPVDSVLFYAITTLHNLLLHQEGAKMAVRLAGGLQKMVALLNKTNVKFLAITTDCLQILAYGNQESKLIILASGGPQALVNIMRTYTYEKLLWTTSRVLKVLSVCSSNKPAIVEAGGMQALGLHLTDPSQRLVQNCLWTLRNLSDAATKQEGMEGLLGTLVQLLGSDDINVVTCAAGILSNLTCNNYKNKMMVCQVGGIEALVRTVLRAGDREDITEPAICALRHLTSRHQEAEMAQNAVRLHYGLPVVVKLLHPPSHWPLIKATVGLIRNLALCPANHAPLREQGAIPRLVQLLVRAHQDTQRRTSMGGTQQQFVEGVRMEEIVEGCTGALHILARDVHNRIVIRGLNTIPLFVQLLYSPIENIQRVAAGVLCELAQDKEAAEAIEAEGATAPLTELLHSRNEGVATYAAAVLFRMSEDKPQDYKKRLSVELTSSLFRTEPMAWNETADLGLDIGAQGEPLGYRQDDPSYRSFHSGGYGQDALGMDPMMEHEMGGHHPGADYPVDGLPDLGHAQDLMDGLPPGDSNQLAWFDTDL

B1: αE-catenin, monomeric fraction (mouse, full length, His(6x) tagged) (natural protein)
chain: MTAVHAGNINFKWDPKSLEIRTLAVERLLEPLVTQVTTLVNTNSKGPSNKKRGRSKKAHVLAASVEQATENFLEKGDKIAKESQFLKEELVVAVEDVRKQGDLMKSAAGEFADDPCSSVKRGNMVRAARALLSAVTRLLILADMADVYKLLVQLKVVEDGILKLRNAGNEQDLGIQYKALKPEVDKLNIMAAKRQQELKDVGNRDQMAAARGILQKNVPILYTASQACLQHPDVAAYKANRDLIYKQLQQAVTGISNAAQATASDDAAQHQGGSGGELAYALNNFDKQIIVDPLSFSEERFRPSLEERLESIISGAALMADSSCTRDDRRERIVAECNAVRQALQDLLSEYMGNAGRKERSDALNSAIDKMTKKTRDLRRQLRKAVMDHVSDSFLETNVPLLVLIEAAKNGNEKEVKEYAQVFREHANKLIEVANLACSISNNEEGVKLVRMSASQLEALCPQVINAALALAAKPQSKLAQENMDLFKEQWEKQVRVLTDAVDDITSIDDFLAVSENHILEDVNKCVIALQEKDVDGLDRTAGAIRGRAARVIHVVTSEMDNYEPGVYTEKVLEATKLLSNTVMPRFTEQVEAAVEALSSDPAQPMDENEFIDASRLVYDGIRDIRKAVLMIRTPEELDDSDFETEDFDVRSRTSVQTEDDQLIAGQSARAIMAQLPQEQKAKIAEQVASFQEEKSKLDAEVSKWDDSGNDIIVLAKQMCMIMMEMTDFTRGKGPLKNTSDVISAAKKIAEAGSRMDKLGRTIADHCPDSACKQDLLAYLQRIALYCHQLNICSKVKAEVQNLGGELVVSGVDSAMSLIQAAKNLMNAVVQTVKASYVASTKYQKSQGMASLNLPAVSWKMKAPEKKPLVKREKQDETQTKIKRASQKKHVNPVQALSEFKAMDSI
[1]
  binding: binds
[2]
  binding: binds
